Three molecules from publication PMC4773171 can be followed below.

Sequences of proteins named here, by UniProt entry; tags and fusion partners are left off.
UniProt Q9JMB7: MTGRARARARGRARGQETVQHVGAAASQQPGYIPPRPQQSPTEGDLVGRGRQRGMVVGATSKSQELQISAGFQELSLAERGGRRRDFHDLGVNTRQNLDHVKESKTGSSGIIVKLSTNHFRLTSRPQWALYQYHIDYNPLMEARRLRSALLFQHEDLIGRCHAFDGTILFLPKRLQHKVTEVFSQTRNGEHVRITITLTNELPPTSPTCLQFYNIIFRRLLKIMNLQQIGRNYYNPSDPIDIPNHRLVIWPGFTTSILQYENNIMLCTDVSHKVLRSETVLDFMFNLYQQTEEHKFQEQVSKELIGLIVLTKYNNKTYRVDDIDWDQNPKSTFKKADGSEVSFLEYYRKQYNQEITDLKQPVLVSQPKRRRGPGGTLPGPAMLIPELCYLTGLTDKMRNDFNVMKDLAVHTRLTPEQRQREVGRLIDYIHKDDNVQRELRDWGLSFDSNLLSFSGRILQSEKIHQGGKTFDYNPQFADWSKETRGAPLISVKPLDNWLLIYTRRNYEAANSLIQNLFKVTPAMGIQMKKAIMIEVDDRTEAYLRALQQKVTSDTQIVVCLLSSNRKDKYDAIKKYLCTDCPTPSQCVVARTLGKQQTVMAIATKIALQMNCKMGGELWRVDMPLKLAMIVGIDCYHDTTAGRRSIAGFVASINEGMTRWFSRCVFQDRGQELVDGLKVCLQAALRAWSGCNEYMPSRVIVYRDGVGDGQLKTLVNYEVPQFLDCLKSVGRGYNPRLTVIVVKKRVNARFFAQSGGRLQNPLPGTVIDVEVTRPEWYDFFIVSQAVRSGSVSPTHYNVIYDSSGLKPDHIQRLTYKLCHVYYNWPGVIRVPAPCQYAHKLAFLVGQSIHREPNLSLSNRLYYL
UniProt P61407: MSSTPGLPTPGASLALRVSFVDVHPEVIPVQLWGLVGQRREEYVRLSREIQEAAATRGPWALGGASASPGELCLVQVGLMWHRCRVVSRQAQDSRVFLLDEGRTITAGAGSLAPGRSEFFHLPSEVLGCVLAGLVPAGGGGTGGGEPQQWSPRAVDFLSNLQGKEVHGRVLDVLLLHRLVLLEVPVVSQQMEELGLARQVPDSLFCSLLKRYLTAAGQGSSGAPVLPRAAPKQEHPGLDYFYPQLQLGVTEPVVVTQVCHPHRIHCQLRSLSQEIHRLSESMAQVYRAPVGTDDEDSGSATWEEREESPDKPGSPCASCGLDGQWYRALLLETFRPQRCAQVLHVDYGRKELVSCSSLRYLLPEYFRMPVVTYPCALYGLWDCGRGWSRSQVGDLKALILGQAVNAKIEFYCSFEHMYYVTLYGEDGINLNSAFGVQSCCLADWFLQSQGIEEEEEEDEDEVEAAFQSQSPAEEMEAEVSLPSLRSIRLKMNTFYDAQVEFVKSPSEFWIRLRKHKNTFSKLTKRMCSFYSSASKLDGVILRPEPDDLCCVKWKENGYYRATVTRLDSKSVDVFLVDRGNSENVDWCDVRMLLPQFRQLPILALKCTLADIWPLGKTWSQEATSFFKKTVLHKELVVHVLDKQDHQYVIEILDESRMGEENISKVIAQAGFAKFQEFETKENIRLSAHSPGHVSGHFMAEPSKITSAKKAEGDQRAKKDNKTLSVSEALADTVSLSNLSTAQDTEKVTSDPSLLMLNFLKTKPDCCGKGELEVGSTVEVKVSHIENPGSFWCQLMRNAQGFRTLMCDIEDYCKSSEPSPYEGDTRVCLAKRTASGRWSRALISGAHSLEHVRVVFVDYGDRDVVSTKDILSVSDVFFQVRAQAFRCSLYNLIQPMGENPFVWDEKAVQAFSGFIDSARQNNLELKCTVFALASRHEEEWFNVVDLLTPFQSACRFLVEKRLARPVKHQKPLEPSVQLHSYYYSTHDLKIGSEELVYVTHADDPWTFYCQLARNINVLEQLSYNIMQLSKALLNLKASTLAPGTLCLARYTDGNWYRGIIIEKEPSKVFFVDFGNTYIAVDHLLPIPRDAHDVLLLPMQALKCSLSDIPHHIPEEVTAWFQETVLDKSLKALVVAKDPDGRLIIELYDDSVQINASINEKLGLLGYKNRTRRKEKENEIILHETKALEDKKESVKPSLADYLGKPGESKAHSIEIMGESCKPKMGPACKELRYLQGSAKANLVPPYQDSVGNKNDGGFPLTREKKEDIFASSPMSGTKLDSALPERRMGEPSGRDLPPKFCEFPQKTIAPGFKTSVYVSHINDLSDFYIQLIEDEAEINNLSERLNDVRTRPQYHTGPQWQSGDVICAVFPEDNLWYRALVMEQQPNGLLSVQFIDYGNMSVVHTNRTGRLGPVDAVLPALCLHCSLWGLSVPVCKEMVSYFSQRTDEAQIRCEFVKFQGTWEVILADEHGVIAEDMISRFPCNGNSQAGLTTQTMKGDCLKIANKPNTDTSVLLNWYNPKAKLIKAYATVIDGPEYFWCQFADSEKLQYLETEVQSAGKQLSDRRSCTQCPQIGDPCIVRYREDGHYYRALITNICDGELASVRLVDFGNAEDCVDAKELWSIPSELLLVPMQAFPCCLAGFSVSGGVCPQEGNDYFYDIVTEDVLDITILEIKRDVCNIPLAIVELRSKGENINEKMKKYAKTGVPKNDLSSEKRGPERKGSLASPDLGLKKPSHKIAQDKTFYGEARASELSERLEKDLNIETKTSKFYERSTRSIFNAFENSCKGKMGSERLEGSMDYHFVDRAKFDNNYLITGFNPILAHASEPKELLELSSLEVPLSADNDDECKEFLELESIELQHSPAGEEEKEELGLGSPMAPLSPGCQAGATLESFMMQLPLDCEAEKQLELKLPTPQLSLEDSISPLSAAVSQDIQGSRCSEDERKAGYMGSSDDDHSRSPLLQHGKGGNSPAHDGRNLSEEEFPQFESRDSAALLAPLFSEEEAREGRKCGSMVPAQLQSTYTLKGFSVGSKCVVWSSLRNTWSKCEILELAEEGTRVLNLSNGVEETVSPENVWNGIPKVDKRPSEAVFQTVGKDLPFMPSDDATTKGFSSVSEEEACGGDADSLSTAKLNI

For assay [1], the target named is T1, GST-fused GTSF1L N-terminal region (ZnF) (mouse) (UniProt Q9CWD0).
T1 sequence: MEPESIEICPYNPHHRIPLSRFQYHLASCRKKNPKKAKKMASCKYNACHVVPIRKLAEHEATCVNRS
As to the kind of experiment: pull-down; GST-fusion protein on Glutathione Sepharose 4B beads; mouse testis lysate, untreated, 2 h at 4°C; binding buffer 20 mM Tris-HCl pH 7.5, 150 mM NaCl, 0.1% NP40; western blotting of the bound fraction; only the target purified. For orientation: Immunoblotting shows a protein as a band on a membrane.

The target of assay [2] is T2, GST-fused full-length GTSF1L (mouse) (UniProt Q9CWD0).
T2 sequence: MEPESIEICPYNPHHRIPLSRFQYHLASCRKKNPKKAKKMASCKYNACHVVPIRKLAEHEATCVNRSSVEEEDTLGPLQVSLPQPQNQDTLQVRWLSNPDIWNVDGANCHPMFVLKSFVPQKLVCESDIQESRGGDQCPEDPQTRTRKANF
The assay is described as above.

These are yes or no findings as the source states them, for the method shown. Binding seen in cells or lysates may run through a third protein. Some results given as binding are weak or reduced against the parent protein; the word gives no strength. Where a sequence is shown, tags or fusion partners need not be part of it.

As for MIWI (from UniProt Q9JMB7 1-862), the binding result in assay [1] was “binds”.

For TDRD6 (from UniProt P61407 1-2134), in assay [2], the binding result was “no binding”.

B1: TDRD1 (protein, UniProt Q99MV1 1-1172)
chain: MMPRNNLEASTCKMAEPFNFEKKESKPPPQDPLRSPVAQHNHPTFRLKSPENGNTKNNFLLCEQNKQYLASQEDSSVVSSNPAVVNGEVGGSKGDRKPPPTGNPVSPLSLGNSSPPNQVKTKPSSNVTPEKSKKSHKLFENALSVNNPALFNSLGPPLRSTTCHRCGLFGSLRCSQCKQTYYCSTACQRRDWSSHSTICRPVQQSLNKLEDNKSPFETKAIEVKSEVDCPPGVTKEITAGAERVMFSDLRSLQLKKTMEIKGTVTEFKHPSNFYIQLYSSEVLENMNQLSTSLKETYANVVPEDGYLPVKGEVCVAKYTVDQTWNRAIVQAVDVLQRKAHVLYIDYGNEEMIPIDSVHPLSRGLDLFPPSAIKCCVSGVIPTAGEWSEGCVAAVKALLFEQFCSVKVMDILEEEVLTCAVDLVLQSSGKQLDHVLVEMGYGVKPGEQSSTEQSVDHSALEDVGRVTVESKIVTDRNALIPKVLTLNVGDEFCGVVAHIQTPEDFFCQQLQSGHKLAELQESLSEYCGHVIPRSDFYPTIGDVCCAQFSEDDQWYRASVLAYASEESVLVGYVDYGNFEILSLKRLCPIIPKLLDLPMQALNCVLAGVKPSLGIWTPEAVCVMKEMVQNRMVTVRVVGMLGTRALVELIDKSVAPHVSASKALIDSGFAIKEKDVADKGSSMHTASVPLAIEGPAEALEWTWVEFTVDETVDVVVCMMYSPGEFYCHFLKDDALEKLDDLNQSLADYCAQKPPNGFKAEIGRPCCAFFSGDGNWYRALVKEILPSGNVKVHFVDYGNVEEVTTDQLQAILPQFLLLPFQGMQCWLVDIQPPNKHWTKEATARFQACVVGLKLQARVVEITANGVGVELTDLSTPYPKIISDVLIREQLVLRCGSPQDSLMSRPANQHKQIDSHRVQASPSAEQWKTMELPVNKTIAANVLEIISPALFYAIPSEMSENQEKLCVLAAELLEHCNAQKGQPAYRPRTGDACCAKYTNDDFWYRAIVLETSESDVKVLYADYGNIETLPLSRVQPIPASHLELPFQIIRCSLEGPMELNGSCSQLVMELLRNAMLNQSVVLSVKAISKNVHAVSVEKCSENGMINIAENLVMCGLAENLTSKRKSASTKEIPHSRDCCCTELQKQIEKHEQILLFLLNNPTNQSKFTEMKKLLRS
Turning to B1, in assay [1], the binding result is “binds”.
